Assay results as given in PubChem BioAssay AID624297 (National Center for Advancing Translational Sciences (NCATS), 2012).
In all, about 340,000 compounds went through this assay and about 6,200 (1.8%) were called active. Inconclusive means that the source gave no clear call. Such entries were picked first, then a sample of the others. Calls come from the whole dose curve; as a rule, active = well fitted activation curve with a large enough effect; inconclusive = small, poorly fitted or top-dose-only effect; inactive = no such curve, though single readings can be large or run the other way. Potencies beside an inconclusive call are fits to weak or partial responses and may not hold up.

Assay: A quantitative high throughput screen for small molecules that induce DNA re-replication in SW480 colon adenocarcinoma cells. For re-replication activation: % of control where 0% means no effect. Note: nearly all actives have a fitted effect of over 55% in size.
Conditions: Hoechst DNA content imaging, 48 h; re-replication activation: at 46.1 µM (top of the series) unless noted
Outline: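 Per well, 250 cells were exposed to pinned compound for 48 hr. Nuclear DNA was visualised with Hoechst (40 min, 37 C) and total object intensity recorded by fluorescence scanning.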
Potency is the fitted concentration of half-maximal effect.

Structure (SMILES) | re-replication activation | Potency
COc1ccc(C2C(=O)N(C3CCCCC3)CC(=O)N2CC2COc3ccccc3O2)cc1 (configuration not stated) | inactive: 3.22% | –
CCCCCCCN(c1ccccc1)[C@@H]1C[C@H]2CCCC(=O)N3CC[C@@H](C1)[C@@H]23 | inactive: 6.16% | –
Cc1ccc(-c2cc(-c3ccccc3Cl)c(C#N)c(N)n2)o1 | – | inconclusive: 29.1 µM [activator, single point]
COc1ccccc1NS(=O)(=O)c1cccc(C(=O)NCC(c2ccco2)N2CCCCC2)c1 (configuration not stated) | inactive: -0.504% | –
CCC(C)C(NC(=O)C(C)NC(=O)CNC(=O)OC(C)(C)C)C(N)=O (configuration not stated) | – | inconclusive: 29.1 µM [activator, single point]
CC(=O)c1ccc(OCC(O)CN2CCC(C)CC2)cc1 (configuration not stated) | – | inconclusive: 29.1 µM [activator, single point]
CC(=O)Nc1ccc2ccccc2c1[N+](=O)[O-] | inactive: 1.36% | –
CCOC(=O)c1ccc(CNCc2ccc(Br)cc2)cc1 | inactive: -0.998% | –
Cc1cc(C(=O)Nc2cc(Br)ccc2O)on1 | – | inconclusive: 29.1 µM [activator, single point]
CC[n+]1c(/C=C/Nc2ccccc2)oc2ccc(OC)cc21 | – | inconclusive: 5.8 µM [activator, partial curve, poor fit]
COc1ccc(Cl)cc1N1CCN(CCNC(=O)Nc2ccccc2C)CC1 | – | inconclusive: 29.1 µM [activator, single point]
COc1ccccc1NC(=S)NC1CC2CCC1C2 (configuration not stated) | inactive: -2.73% | –
COC(=O)c1cc(C(=O)c2ccc(Cl)cc2Cl)cn1C | inactive: -11.3% | –
O=S(=O)(CCN1CCOCC1)c1ccc(Cl)cc1 | inactive: 1.59% | –
Cc1ccccc1NC(=O)c1ccc(OCc2c(C)noc2C)cc1 | – | inconclusive: 31.6 µM [activator, single point]
CN(C)c1ccc(-c2nnc(SCC3CCCO3)n2C)cc1 (configuration not stated) | – | inconclusive: 4.11 µM [activator, partial curve, poor fit]
CN1CCCN(C(=O)c2c(F)cccc2Cl)CC1 | inactive: -19.5% | –
CN1/C(=C/c2cccc[n+]2C)Sc2ccccc21 | – | inconclusive: 16.4 µM [activator, single point]
COc1cc(C2SCC(=O)N2Cc2ccccc2)ccc1O (configuration not stated) | – | inconclusive: 29.1 µM [activator, single point]
CCCCOc1ccc(C(=O)NCC(=O)NCCOc2ccccc2)cc1 | – | inconclusive: 5.8 µM [activator, single point]
Nc1nsc2ccccc12 | – | inconclusive: 18.4 µM [activator, partial curve, poor fit]
COc1ccc(NS(=O)(=O)c2ccc(NC(=O)c3ccccc3Br)cc2)nn1 | – | inconclusive: 3.66 µM [activator, partial curve, poor fit]

Part of the list above in order of SMILES length, low to high:
Structure (SMILES) | re-replication activation | Potency
COc1ccc(NS(=O)(=O)c2ccc(NC(=O)c3ccccc3Br)cc2)nn1 | – | inconclusive: 3.66 µM [activator, partial curve, poor fit]
COc1ccccc1NS(=O)(=O)c1cccc(C(=O)NCC(c2ccco2)N2CCCCC2)c1 (configuration not stated) | inactive: -0.504% | –
CCCCCCCN(c1ccccc1)[C@@H]1C[C@H]2CCCC(=O)N3CC[C@@H](C1)[C@@H]23 | inactive: 6.16% | –
